The list shows a part of the results. Further columns of the screen follow, without active or inactive calls. Most of these compounds were active or inconclusive in the main read-out, so they are no random draw. The note in brackets gives the kind of curve behind each potency; many fits are weak.
Experiment: Cell signaling CRE-BLA (Fsk stim)
Settings: CHO CRE-bla reporter (cAMP response element driving beta-lactamase), forskolin EC10, beta-lactamase ratio; measured here: 460 nm blue channel
Summary of the method: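 CRE-bla CHO reporter cells treated with compound titration plus EC10 NKH 477 (water-soluble forskolin), incubated 3 h at 37 °C; CCF4 loading 2 h at room temperature, 460/530 nm emission ratio read, AC50 values derived for positive or negative modulators.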

Structure (SMILES)	AC50
Cc1ccc2oc(-c3ccco3)nc2c1	25.1 µM [rising, single point]
Cc1cccc(S(=O)(=O)Nc2cccc(-c3cn4ccsc4n3)c2)c1	2 µM [rising, partial curve]
c1cncc(-c2nc(N3CCNCC3)c3ccccc3n2)c1	15.8 µM [rising, single point]
C[C@@]12CCC(=O)C=C1CC[C@H]1[C@H]3CC[C@](O)(C(=O)CO)[C@]3(C)CC[C@@H]12	25.1 µM [falling, partial curve]
CS(=O)(=O)Nc1ccc(C(=O)Nc2ccccc2C(=O)N2CCCC2)cc1	3.98 µM [falling, full curve, poor fit]
O=C1c2ccccc2CC[C@H]1CNCCc1ccc(O)cc1	25.1 µM [falling, partial curve]
COc1ccc(C(=O)COC(=O)CCN=C2NS(=O)(=O)c3ccccc32)cc1OC	10 µM [rising, partial curve]
Cc1cc(C)n(-c2nc3c(c(=O)n(C)c(=O)n3C)n2Cc2cccc(Br)c2)n1	31.6 µM [falling, single point]
O=C(Nc1c(C(=O)N2CCOCC2)cnn1-c1ccccc1Cl)c1ccco1	6.31 µM [rising, partial curve]
FC(F)(F)c1cc(-c2cccs2)nc(N2CCOCC2)n1	25.1 µM [rising, single point]
CCOc1ccccc1NC(=O)CSc1ncnc2c1oc1ccccc12	0.398 µM [rising, full curve]
Cc1cc(C(=O)CSc2nnc(-c3ccco3)o2)c(C)n1-c1ccc2c(c1)OCCO2	25.1 µM [falling, single point]
COc1ccccc1NC(=O)c1ccc(Cl)c(S(=O)(=O)N2CCOCC2)c1	0.00398 µM [falling, full curve]
CCOC(=O)N1CCN(C(=O)CCc2c(C)nc3nc(C)nn3c2C)CC1	1 µM [falling, full curve]
COc1ccccc1Oc1ccc(S(=O)(=O)NCc2ccccn2)cc1	25.1 µM [rising, single point]
CS(=O)(=O)N(CC(=O)Nc1ccc2c(c1)OCCO2)Cc1ccc(Cl)cc1	0.794 µM [falling, full curve, poor fit]
CN(C)c1ncc2ncc(=O)n(C3CC3)c2n1	15.8 µM [rising, partial curve]
COc1cc(NC(=O)c2cc(C(C)C)on2)cc(OC)c1OC	10 µM [rising, partial curve]
O=C1CCCC(O)=C1C1C2=C(CCCC2=O)Oc2ccccc21 (stereo not drawn)	6.31 µM [falling, partial curve]
CN(C)c1ncc2nc(CCc3ccccc3)c(=O)n(C[C@H]3CCCO3)c2n1	12.6 µM [rising, partial curve]
COC(=O)c1ccccc1NC(=O)C1CC(c2ccccc2O)=NO1 (stereo not drawn)	12.6 µM [falling, partial curve]
COCCNc1nc(C)nc2c1nc(-c1ccccc1)n2CCN(C)C	12.6 µM [rising, partial curve]

Structure (SMILES)	AC50
CCn1c(=O)cc(SCC(=O)NCc2ccco2)c2ccccc21	10 µM [rising, partial curve]
CC(=O)NCCNc1nc(-c2ccc(N(C)C)cc2)nc2ccccc12	12.6 µM [rising, partial curve]
Cc1ccc(C2NC(=O)c3c(sc4c3CCN(C)C4)N2)o1 (stereo not drawn)	5.01 µM [rising, full curve, poor fit]
O=C(O)c1cccn2c(=O)c3ccccc3nc12	20 µM [rising, single point]
CC(=O)c1ccc2c(c1)Nc1ccccc1S2	2.51 µM [falling, full curve, poor fit]
CCOC(=O)CSc1nnc(CNC(=O)c2cccs2)n1Cc1ccccc1	25.1 µM [rising, single point]
CCCn1c(=O)c(C(=O)Nc2ccccc2C(=O)OCC)c(O)c2ccccc21	0.251 µM [rising, full curve]
COc1ccc(CCNC(=O)CSc2nc(N)c3c(C)c(C)oc3n2)cc1OC	12.6 µM [rising, single point]
CN(C)c1ccc(-c2nc(N3CCNCC3)c3ccccc3n2)cc1	10 µM [rising, partial curve]
COc1ccc(OC)c(-c2cc(C(=O)Nc3c(C)nn(Cc4ccccc4)c3C)no2)c1	5.01 µM [rising, partial curve]
O=C(CCNS(=O)(=O)c1ccc2c(c1)CCC(=O)N2)NCc1cccnc1	3.98 µM [falling, single point]
Cc1cc(N=Cc2cc(Br)ccc2O)no1	0.794 µM [rising, single point]
O=C(c1ccco1)N1C(=O)c2cccc3cccc1c23	10 µM [rising, partial curve, poor fit]
Nc1c(Sc2ccccc2)c(=O)[nH]c(=O)n1Cc1ccccc1	5.01 µM [falling, single point]
O=C(CN1C(=O)C2CC=CCC2C1=O)Nc1nc2ccccc2[nH]1 (stereo not drawn)	31.6 µM [falling, single point]
CCN(CC)CCCNC(=O)c1cn(CCOC)c(=O)c2c1c1ccccc1n2C	3.16 µM [rising, partial curve]
COc1cc2[nH]c3c(N4CCN(c5ccc(Cl)cc5)CC4)ncnc3c2cc1OC	10 µM [rising, single point]
O=S(=O)(Cc1ccccc1)NCc1ccccn1	0.00398 µM [falling, full curve, poor fit]
COCCn1c(=O)c(-c2cccc(C#N)c2)nc2cnc(N3CCN(C)CC3)nc21	12.6 µM [rising, partial curve]
COc1ccc2[nH]c(=O)c(CN(CC3CCCO3)C(=O)Nc3ccccc3OC)cc2c1 (stereo not drawn)	12.6 µM [rising, single point]
C=CCn1cnc2c(c1=O)c1nc3ccccc3nc1n2/N=C/c1cccc(OC)c1OC	6.31 µM [rising, partial curve]

An excerpt taken from the entries so far, as a working copy:
Structure (SMILES)	AC50
CN(C)c1ncc2ncc(=O)n(C3CC3)c2n1	15.8 µM [rising, partial curve]
COc1cc(NC(=O)c2cc(C(C)C)on2)cc(OC)c1OC	10 µM [rising, partial curve]
O=C1CCCC(O)=C1C1C2=C(CCCC2=O)Oc2ccccc21 (stereo not drawn)	6.31 µM [falling, partial curve]
